{"source": "PubChem BioAssay AID504764 – Drosophila RNAi Screening Center, 2011", "aim": "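Genes whose knock-down alters Notch-dependent transcription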 (primary screen)", "cells": "Drosophila Kc167 cells", "reagents": "long dsRNA against Drosophila genes", "time to read-out": "about 5 days (4 days dsRNA, then 24 h after transfection)", "challenge": "transfection of constitutively active membrane-tethered Notch lacking the extracellular domain, read 24 h later", "read-out": "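Firefly luciferase from an E(spl)m3 reporter with active Notch, plus control-promoter and uninduced reporter wells for normalisation; unnormalised counts, duplicate wells a and b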", "scale": "induced reporter light, run 1, well a and induced reporter light, run 1, well b: higher = more light from the Notch target reporter with active Notch; control promoter light, run 1, well a and control promoter light, run 1, well b: higher = more light from the viral control promoter (cell number, transfection, viability); uninduced reporter light, run 1, well a: higher = more light from the Notch target reporter without active Notch", "call rule": "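Wells with low control signal or poorly matching duplicates excluded; duplicates averaged; per source plate, z beyond ±2 for induced/control log2 ratio or beyond ±1.8 for induced/uninduced marks a hit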", "meaning of the calls": "active = modifier hit (raised or lowered Notch signal); inactive = not a hit", "note": "The deposit covers about 22,000 reagents; this is an unselected part of those with a known target gene and a result. Over the whole deposit, 403 (1.9%) were called active. 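Unnormalised raw counts per well; ratio z-scores behind the hit calls and whether each hit raises or lowers signal are not deposited.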 Reagent sequences are not shown. Not stated in the record: the amount of reagent."}
{"gene": "CG32447", "amplicon": "DRSC11732", "induced reporter light, run 1, well a": 1.37e5, "induced reporter light, run 1, well b": 1.25e5, "control promoter light, run 1, well a": 77855, "control promoter light, run 1, well b": 80735, "uninduced reporter light, run 1, well a": 9160, "call": "inactive"}
{"gene": "CG32447", "amplicon": "DRSC11805", "induced reporter light, run 1, well a": 1.60e5, "induced reporter light, run 1, well b": 1.03e5, "control promoter light, run 1, well a": 97615, "control promoter light, run 1, well b": 79115, "uninduced reporter light, run 1, well a": 9315, "call": "inactive"}
{"gene": "repo", "amplicon": "DRSC16369", "induced reporter light, run 1, well a": 43080, "induced reporter light, run 1, well b": 43185, "control promoter light, run 1, well a": 40100, "control promoter light, run 1, well b": 33835, "uninduced reporter light, run 1, well a": 7345, "call": "inactive"}
{"gene": "CG2898", "amplicon": "DRSC18238", "induced reporter light, run 1, well a": 85030, "induced reporter light, run 1, well b": 54560, "control promoter light, run 1, well a": 1.01e5, "control promoter light, run 1, well b": 97485, "uninduced reporter light, run 1, well a": 5730, "call": "inactive"}
{"gene": "nAChRalpha6", "amplicon": "DRSC01096", "induced reporter light, run 1, well a": 1.08e5, "induced reporter light, run 1, well b": 1.19e5, "control promoter light, run 1, well a": 1.37e5, "control promoter light, run 1, well b": 1.04e5, "uninduced reporter light, run 1, well a": 10742, "call": "inactive"}
{"gene": "nAChRalpha6", "amplicon": "DRSC02738", "induced reporter light, run 1, well a": 1.99e5, "induced reporter light, run 1, well b": 2.26e5, "control promoter light, run 1, well a": 2.08e5, "control promoter light, run 1, well b": 1.71e5, "uninduced reporter light, run 1, well a": 15730, "call": "inactive"}
{"gene": "mRpL33", "amplicon": "DRSC18319", "induced reporter light, run 1, well a": 1.16e5, "induced reporter light, run 1, well b": 1.47e5, "control promoter light, run 1, well a": 2.19e5, "control promoter light, run 1, well b": 2.17e5, "uninduced reporter light, run 1, well a": 10105, "call": "inactive"}
{"gene": "CG1428", "amplicon": "DRSC03708", "induced reporter light, run 1, well a": 40420, "induced reporter light, run 1, well b": 32585, "control promoter light, run 1, well a": 38720, "control promoter light, run 1, well b": 56165, "uninduced reporter light, run 1, well a": 2990, "call": "inactive"}
{"gene": "sip3", "amplicon": "DRSC15402", "induced reporter light, run 1, well a": 2.25e5, "induced reporter light, run 1, well b": 2.00e5, "control promoter light, run 1, well a": 2.32e5, "control promoter light, run 1, well b": 2.12e5, "uninduced reporter light, run 1, well a": 13645, "call": "inactive"}

No new results follow: entries from further up.
{"gene": "CG32447", "amplicon": "DRSC11805", "induced reporter light, run 1, well a": 1.60e5, "induced reporter light, run 1, well b": 1.03e5, "control promoter light, run 1, well a": 97615, "control promoter light, run 1, well b": 79115, "uninduced reporter light, run 1, well a": 9315, "call": "inactive"}
{"gene": "repo", "amplicon": "DRSC16369", "induced reporter light, run 1, well a": 43080, "induced reporter light, run 1, well b": 43185, "control promoter light, run 1, well a": 40100, "control promoter light, run 1, well b": 33835, "uninduced reporter light, run 1, well a": 7345, "call": "inactive"}

Continued.
{"gene": "CG34232", "amplicon": "DRSC05332", "induced reporter light, run 1, well a": 2.14e5, "induced reporter light, run 1, well b": 2.07e5, "control promoter light, run 1, well a": 1.96e5, "control promoter light, run 1, well b": 1.85e5, "uninduced reporter light, run 1, well a": 16385, "call": "inactive"}
{"gene": "Dus1", "amplicon": "DRSC00623", "induced reporter light, run 1, well a": 1.42e5, "induced reporter light, run 1, well b": 1.06e5, "control promoter light, run 1, well a": 97050, "control promoter light, run 1, well b": 67990, "uninduced reporter light, run 1, well a": 8925, "call": "inactive"}
{"gene": "CG7059", "amplicon": "DRSC16187", "induced reporter light, run 1, well a": 2.22e5, "induced reporter light, run 1, well b": 1.89e5, "control promoter light, run 1, well a": 2.31e5, "control promoter light, run 1, well b": 2.12e5, "uninduced reporter light, run 1, well a": 15075, "call": "inactive"}
{"gene": "Acp1", "amplicon": "DRSC01854", "induced reporter light, run 1, well a": 95705, "induced reporter light, run 1, well b": 1.45e5, "control promoter light, run 1, well a": 97960, "control promoter light, run 1, well b": 1.22e5, "uninduced reporter light, run 1, well a": 18415, "call": "inactive"}
{"gene": "Lsp1gamma", "amplicon": "DRSC08672", "induced reporter light, run 1, well a": 92370, "induced reporter light, run 1, well b": 90735, "control promoter light, run 1, well a": 1.22e5, "control promoter light, run 1, well b": 1.90e5, "uninduced reporter light, run 1, well a": 8830, "call": "inactive"}
{"gene": "VhaM9.7-c", "amplicon": "DRSC08204", "induced reporter light, run 1, well a": 1.18e5, "induced reporter light, run 1, well b": 1.20e5, "control promoter light, run 1, well a": 95325, "control promoter light, run 1, well b": 33850, "uninduced reporter light, run 1, well a": 9900, "call": "inactive"}
{"gene": "CG14629", "amplicon": "DRSC18476", "induced reporter light, run 1, well a": 1.04e5, "induced reporter light, run 1, well b": 1.15e5, "control promoter light, run 1, well a": 1.96e5, "control promoter light, run 1, well b": 2.18e5, "uninduced reporter light, run 1, well a": 6820, "call": "inactive"}
{"gene": "ago", "amplicon": "DRSC08463", "induced reporter light, run 1, well a": 1.27e5, "induced reporter light, run 1, well b": 1.36e5, "control promoter light, run 1, well a": 1.09e5, "control promoter light, run 1, well b": 58015, "uninduced reporter light, run 1, well a": 13625, "call": "inactive"}
{"gene": "CG10600", "amplicon": "DRSC02074", "induced reporter light, run 1, well a": 1.92e5, "induced reporter light, run 1, well b": 2.24e5, "control promoter light, run 1, well a": 1.80e5, "control promoter light, run 1, well b": 2.03e5, "uninduced reporter light, run 1, well a": 13775, "call": "inactive"}
